# Values quoted from earlier work, collected in patent publication US11291651B2, “Glycopyrrolate salts” (Journey Medical Corporation, priority 2013, dated 2022).
# Tested on: hyperhidrosis
# Conditions: topically applied; compared with aluminum chloride; cited from earlier work
smiles,measurement,value
"C[N+]1(C)CCC(OC(=O)C(O)(c2ccccc2)C2CCCC2)C1 (stereo not shown) [glycopyrrolate bromide, glycopyrronium bromide]",skin irritation,less skin irritation
